Measured values reported in PubChem BioAssay AID493014 (National Center for Advancing Translational Sciences (NCATS), 2011).
The whole screen tested about 340,000 compounds, of which about 170 (0.05%) were called active. The inconclusive results got no clear call from the source; some entries with a clear call stand among them for comparison. The call rests on the fitted dose curve; in most records, active means well fitted inhibition curve with a large enough effect in the signal ratio, with a control signal flat (not every such curve was filed as active); inconclusive means small, poorly fitted or top-dose-only effect, or effect the other way, or a change in a side signal; inactive means flat fitted curve, though single readings scatter; the % refers to the signal ratio. Potencies beside an inconclusive call are fits to weak or partial responses and may not hold up.
Potency means the concentration at half of the fitted maximal effect.

Assay: qHTS Assay to Find Inhibitors of Chronic Active B-Cell Receptor Signaling;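 on activity change, negative = inhibition: plate controls were basal doxycycline-induced cells for no effect and cells given 10 µM MG132 for full effect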
Details: ABC-DLBCL IkBa-CBG/CBR reporter, luminescence ratio (green luciferase fused to IkBa over red control in TMD8 lymphoma cells), 4 h; activity change, negative = inhibition: at 46.1 µM (top of the series)
How it was run: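 Doxycycline induced both beetle luciferases in TMD8 lymphoma cells; IKK-driven degradation limits the IkappaBalpha-fused green signal, while red luminescence normalises for cell number and nonspecific effects. Compounds tested up to 46 uM, 4 hrs.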
With `Cc1ccc(-c2cc(-c3ccccc3Cl)[nH]n2)c(O)c1` the Potency was inconclusive: 1.16 µM [rising, partial curve, poor fit]. In the case of `CCCC(=O)Nc1ccc2c(c1)c1ccccc1n2CC`, the activity change, negative = inhibition is reported as inconclusive: -0.597%. With `O=C(CSC(=S)N1CCCC1)N1CCN(S(=O)(=O)c2cccc([N+](=O)[O-])c2)CC1` the activity change, negative = inhibition was “inactive”. With `CCc1ccc(C(=O)Nc2cccc(-c3nn[nH]n3)c2)s1` the activity change, negative = inhibition was inconclusive: -13.7%. In the case of `COC(=O)n1c(=O)oc2ccc(S(=O)(=O)N3CCCCC3)cc21`, the Potency is reported as inconclusive: 0.501 µM [falling, full curve, poor fit]. With `NNC(=O)c1ccc(COc2cccc3ccccc23)cc1` the Potency was inconclusive: 16.4 µM [falling, partial curve]. With `CC(=O)N(c1ccc(C)cc1)c1nc(C)cc(C)c1C#N` the activity change, negative = inhibition was inconclusive: -20.1%. In the case of `CCc1sc(C(=O)Nc2cccc(C(C)=O)c2)cc1C`, the activity change, negative = inhibition is reported as inconclusive: -4.18%. With `CCCOC(=O)C[N+](C)(C)CCOC1CC2CCC1(C)C2(C)C` (configuration not stated) the activity change, negative = inhibition was “inactive”. For `CC(O)CN(Cc1cccc(Cl)c1)CC(C)O` (configuration not stated), the activity change, negative = inhibition was inconclusive: -4.39%. With `COc1ccc(C(=O)Nc2nnc(C3=COCCO3)o2)cc1` the Potency was inconclusive: 4.47 µM [cytotoxic, partial curve]. With `COc1ccc(NC(=O)c2cc(-c3ccccc3)oc2C)cc1` the Potency was inconclusive: 0.206 µM [activator, full curve, poor fit]. For `c1ccc(CN2c3ccccc3-c3nc4ccccc4n3C2c2ccccn2)cc1` (configuration not stated), the activity change, negative = inhibition was inconclusive: 13.7%. In the case of `Cc1ccc(N2CCN(C(=O)C3CCC(=O)N(Cc4ccc(Cl)cc4)C3)CC2)c(C)c1` (configuration not stated), the activity change, negative = inhibition is reported as inconclusive: 0.374%. In the case of `O=C(Nc1scc(-c2ccccc2)c1C(=O)O)c1ccccc1F`, the Potency is reported as inconclusive: 25.1 µM [falling, single point]. With `O=c1[nH][nH]c2cc(=O)n(-c3cccc(C(F)(F)F)c3)nc12` the activity change, negative = inhibition was “inactive”. In the case of `Nc1cccc(-c2nnc3n2CCCCC3)c1`, the activity change, negative = inhibition is reported as inconclusive: -21.2%. For `CCC(=O)Nc1ccc2c(c1)C(=O)N(C)C2=O`, the Potency was inconclusive: 4.11 µM [rising, full curve, poor fit]. In the case of `CC(C)(C)N1C(=O)c2ccccc2NC(=O)N1Cc1ccc(Br)cc1`, the Potency is reported as inconclusive: 4.11 µM [falling, single point]. In the case of `O=C(COc1ccccc1[N+](=O)[O-])c1ccccc1`, the activity change, negative = inhibition is reported as inconclusive: 15%. In the case of `COc1cc(C(=O)Nc2nccs2)ccc1OCc1c(C)noc1C`, the activity change, negative = inhibition is reported as inconclusive: -0.0246%. In the case of `O=C(CSc1nnc(-c2ccco2)o1)NC(=O)Cc1ccccc1`, the activity change, negative = inhibition is reported as inconclusive: 14%.
